Test results published in paper PMC8922767.
No constants are given. Whether binding was seen depends on the method and setting. Binding seen in cells or lysates may run through a third protein. Some results given as binding are weak or reduced against the parent protein; the word gives no strength.

Protein sequences, listed by entry. Tags and fused reporters are not part of them.
UniProt P49840: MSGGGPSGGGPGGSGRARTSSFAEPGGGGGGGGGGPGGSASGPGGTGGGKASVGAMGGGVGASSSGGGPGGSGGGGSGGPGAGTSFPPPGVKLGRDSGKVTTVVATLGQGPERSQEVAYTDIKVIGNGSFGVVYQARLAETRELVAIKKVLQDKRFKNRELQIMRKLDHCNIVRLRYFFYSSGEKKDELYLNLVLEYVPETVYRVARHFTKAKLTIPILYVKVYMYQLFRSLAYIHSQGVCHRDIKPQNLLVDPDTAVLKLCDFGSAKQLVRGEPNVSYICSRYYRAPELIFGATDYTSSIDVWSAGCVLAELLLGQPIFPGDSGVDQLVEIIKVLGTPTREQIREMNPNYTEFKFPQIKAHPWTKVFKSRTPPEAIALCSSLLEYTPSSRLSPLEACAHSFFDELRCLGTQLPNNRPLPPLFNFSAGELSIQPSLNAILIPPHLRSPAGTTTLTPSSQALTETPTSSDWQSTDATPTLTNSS
UniProt Q16665: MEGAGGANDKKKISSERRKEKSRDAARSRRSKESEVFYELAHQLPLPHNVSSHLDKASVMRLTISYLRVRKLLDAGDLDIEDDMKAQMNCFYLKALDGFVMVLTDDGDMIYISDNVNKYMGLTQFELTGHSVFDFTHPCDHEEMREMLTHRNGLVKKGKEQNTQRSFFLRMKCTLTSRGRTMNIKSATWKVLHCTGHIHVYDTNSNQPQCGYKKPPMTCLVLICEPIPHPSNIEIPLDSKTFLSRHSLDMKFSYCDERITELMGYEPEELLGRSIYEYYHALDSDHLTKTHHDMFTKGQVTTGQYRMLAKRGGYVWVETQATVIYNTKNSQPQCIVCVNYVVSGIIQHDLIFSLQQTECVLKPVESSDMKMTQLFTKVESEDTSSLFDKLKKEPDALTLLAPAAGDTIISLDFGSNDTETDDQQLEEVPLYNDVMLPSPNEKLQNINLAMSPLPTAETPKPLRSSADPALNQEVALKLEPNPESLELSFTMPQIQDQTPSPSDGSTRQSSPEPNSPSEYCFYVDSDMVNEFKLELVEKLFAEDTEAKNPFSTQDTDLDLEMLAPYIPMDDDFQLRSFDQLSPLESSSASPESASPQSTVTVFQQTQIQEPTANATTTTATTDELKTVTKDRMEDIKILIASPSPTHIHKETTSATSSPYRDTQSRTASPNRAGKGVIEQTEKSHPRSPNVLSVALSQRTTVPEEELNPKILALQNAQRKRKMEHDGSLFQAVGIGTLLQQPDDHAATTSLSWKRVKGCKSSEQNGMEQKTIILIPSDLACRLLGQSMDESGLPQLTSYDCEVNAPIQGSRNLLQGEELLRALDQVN

Target: Glycogen synthase kinase-3α (human (endogenous in A549 and H226)) (UniProt P49840)
Assay: co-IP; primary antibodies on Protein L magnetic beads, whole cell lysate (NP-40 lysis buffer) incubated with the beads at 4 °C overnight, then western blot; A549 and H226 cells; under hypoxia (1% O2, 6 h), and under normoxia with MG132

binding: binds
Substance: Hypoxia-inducible factor 1α (from UniProt Q16665 1-826)
